{"source": "paper PMC5241876", "target": "neural cell adhesion molecule 1 (NCAM1) (mouse (endogenous in NMuMG))", "experiment": "affinity purification with mass spectrometry; NCAM1 interactome Dataset III: NCAM1 co-IP from in vivo formaldehyde-crosslinked wild-type NMuMG cells before and after 48 h TGFB1; smaller scale; six-plex TMT", "note": "These are yes or no findings as the source states them, for the method shown. Binding seen in cells or lysates may run through a third protein. A yes stands for co-enrichment or nearness to the bait. Other partners may have been found."}
{"binder": "integrin alpha V (ITGAV) (protein, UniProt P43406 31-1044) FNLDVESPAEYAGPEGSYFGFAVDFFEPSTSSRMFLLVGAPKANTTQPGIVEGGQVLKCECSSSRRCQPIEFDSTGNRDYAKDDPLEFKSHQWFGASVRSKQDKILACAPLYHWRTEMKQEREPVGTCFLQDGTKTVEYAPCRSKNIDADGQGFCQGGFSIDFTKADRVLLGGPGSFYWQGQLISDQVAEIISKYDPNVYSIKYNNQLATRTAQAIFDDSYLGYSVAVGDFNGDGIEDFVSGVPRAARTLGMVYIYDGKNMSSLHNFTGEQMAAYFGFSVAATDINGDDYADVFIGAPLFMDRGSDGKLQEVGQVSVSLQRAVGDFQTTKLNGFEVFARFGSAIAPLGDLDQDGFNDIAIAAPYGGEDKKGLVYIFNGRSTGLNSVPSQILEGQWAAQSMPPSFGYSMKGATDVDRNGYPDLVVGAFGVDRAVLYRARPVVTVNAGLEVYPSILNQDNKICPLPGTALKVSCFNVRFCLKADGKGTLPRKLHFQVELLLDKLKQKGAIRRALFLHNRSPVHSKTMTVFRGGQMQCEELVAYLRDESEFRDKLTPITIFMEYRLDQRTAADATGLQPILNQFTPANVSRQAHILLDCGEDNVCKPKLEVSVNSDQKKIYIGDDNPLTLTVKAQNQGEGAYEAELIVSIPPQADFIGVVRNNEALARLSCAFKTENQTRQVVCDLGNPMKAGTQLLAGLRFSVHQQSEMDTSVKFDLKIQSSNSFDNVSPVVSYKVDLAVLAAVEIRGVSSPDHIFLPIPNWEYKENPETEEDVGPIVQHIYELRNNGPSSFSKAILNLQWPYKYNNNTLLYILHYDIDGPMNCTADTEINPLRIKTPEKNDTAAAGQGERNHLITKRDLTLREGDVHTLGCGIAKCLQITCQVGRLDRGKSAILYVKSLLWTETFMNKENQNHSYSLKSSASFNIIEFPYKNLPIEDLFNSTLVTTNITWGIQPAPMPVPVWVIILAVLAGLLLLAVLVFVMYRMGFFKRVRPPQEEQEREQLQPHENGEGNSET", "values": [{"measurement": "binding", "result": "binds"}]}
{"binder": "integrin alpha-2 (ITGA2) (protein, UniProt Q62469 27-1178) YNVGLPGAKIFSGPSSEQFGYSVQQLTNPQGNWLLVGSPWSGFPENRMGDVYKCPVDLPTATCEKLNLQNSASISNVTEIKTNMSLGLTLTRNPGTGGFLTCGPLWAHQCGNQYYATGICSDVSPDFQFLTSFSPAVQACPSLVDVVVVCDESNSIYPWEAVKNFLVKFVTGLDIGPKKTQVALIQYANEPRIIFNLNDFETKEDMVQATSETRQHGGDLTNTFRAIEFARDYAYSQTSGGRPGATKVMVVVTDGESHDGSKLKTVIQQCNDDEILRFGIAVLGYLNRNALDTKNLIKEIKAIASTPTERYFFNVADEAALLEKAGTLGEQIFSIEGTVQGGDNFQMEMAQVGFSADYAPQNDILMLGAVGAFDWSGTLVQETSHKPVIFPKQAFDQVLQDRNHSSFLGYSVAAISTEDGVHFVAGAPRANYTGQIVLYSVNKQGNVTVIQSHRGDQIGSYFGSVLCSVDVDKDTITDVLLVGAPTYMNDLKKEEGKVYLFTITKGILNQHQFLEGPEGTGNARFGSAIAALSDINMDGFNDVIVGSPVENENSGAVYIYNGHQGTIRTKYSQKILGSNGAFRRHLQFFGRSLDGYGDLNGDSITDVSIGALGQVIQLWSQSIADVAIEALFTPDKITLLNKDAKITLKLCFRAEFRPAGQNNQVAILFNMTLDADGHSSRVTSRGVFRENSERFLQKNMVVNEVQKCSEHHISIQKPSDVVNPLDLRVDISLENPGTSPALEAYSETVKVFSIPFYKECGSDGICISDLILDVQQLPAIQTQSFIVSNQNKRLTFSVILKNRGESAYNTVVLAEFSENLFFASFSMPVDGTEVTCEVGSSQKSVTCDVGYPALKSEQQVTFTINFDFNLQNLQNQAAINFQAFSESQETNKADNSVSLTIPLLYDAELHLTRSTNINFYEISSDENAPSVIKSVEDIGPKFIFSLKVTAGSAPVSMALVTIHIPQYTKEKNPLLYLTGIQTDQAGDISCTAEINPLKLPHTAPSVSFKNENFRHTKELDCRTTSCSNITCWLKDLHMKAEYFINVTTRVWNRTFAASTFQTVQLTAAAEIDTHNPQLFVIEENAVTIPLMIMKPTEKAEVPTGVIIGSIIAGILLLLAMTAGLWKLGFFKRQYKKMGQNPDEMDETTELNS", "values": [{"measurement": "binding", "result": "binds"}]}
